According to the supplement of paper PMC8728848:
The list shows a part of the results.

Columns and labels:
Assay in all cases: glycan array binding signal (z-score within array); higher = stronger binding
Details in all cases: glycan notation: IUPAC condensed, linker removed
[1] = molecular target: GlcNAc(b1-2)Gal(b1-3)GalNAc
Method in brief: (§1)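 Arrays were curated from the Consortium for Functional Glycomics database, 3228 in total, and kept only where the protein sequence was available. Binding is expressed as a within-array Z-score. This score was averaged across arrays of the same protein sequence at different concentrations or buffers and across linkers, and negative values can be read as non-binding.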

[2] = molecular target: GlcNAc(b1-2)Man(a1-3)[GlcNAc(b1-2)Man(a1-6)]Man(b1-4)GlcNAc(b1-4)GlcNAc
Method in brief: as §1

[3] = molecular target: GlcNAc(b1-2)Man(a1-3)[GlcNAc(b1-2)Man(a1-6)]Man(b1-4)GlcNAc(b1-4)[Fuc(a1-6)]GlcNAc
Method in brief: as §1

[4] = molecular target: GlcNAc(b1-2)Man(a1-3)[GlcNAc(b1-4)][GlcNAc(b1-2)Man(a1-6)]Man(b1-4)GlcNAc(b1-4)GlcNAc
Method in brief: as §1

[5] = molecular target: GlcNAc(b1-2)Man(a1-3)[GlcNAc(b1-4)][GlcNAc(b1-2)Man(a1-6)]Man(b1-4)GlcNAc(b1-4)[Fuc(a1-6)]GlcNAc
Method in brief: as §1

[6] = molecular target: GlcNAc(b1-2)[GlcNAc(b1-4)]Man(a1-3)[GlcNAc(b1-2)Man(a1-6)]Man(b1-4)GlcNAc(b1-4)GlcNAc
Method in brief: as §1

[7] = molecular target: GlcNAc(b1-2)[GlcNAc(b1-4)]Man(a1-3)[GlcNAc(b1-4)][GlcNAc(b1-2)Man(a1-6)]Man(b1-4)GlcNAc(b1-4)GlcNAc
Method in brief: as §1

[8] = molecular target: GlcNAc(b1-2)[GlcNAc(b1-4)]Man(a1-3)[GlcNAc(b1-4)][GlcNAc(b1-2)[GlcNAc(b1-6)]Man(a1-6)]Man(b1-4)GlcNAc(b1-4)GlcNAc
Method in brief: as §1

[9] = molecular target: GlcNAc(b1-2)[GlcNAc(b1-4)]Man(a1-3)[GlcNAc(b1-4)][GlcNAc(b1-2)[GlcNAc(b1-6)]Man(a1-6)]Man(b1-4)GlcNAc(b1-4)[Fuc(a1-6)]GlcNAc
Method in brief: as §1

[10] = molecular target: GlcNAc(b1-2)[GlcNAc(b1-6)]Man(a1-6)[GlcNAc(b1-2)Man(a1-3)]Man(b1-4)GlcNAc(b1-4)GlcNAc
Method in brief: as §1

[11] = molecular target: GlcNAc(b1-2)[GlcNAc(b1-6)]Man(a1-6)[GlcNAc(b1-2)Man(a1-3)]Man(b1-4)GlcNAc(b1-4)[Fuc(a1-6)]GlcNAc
Method in brief: as §1

[12] = molecular target: GlcNAc(b1-2)[GlcNAc(b1-6)]Man(a1-6)[GlcNAc(b1-4)][GlcNAc(b1-2)Man(a1-3)]Man(b1-4)GlcNAc(b1-4)GlcNAc
Method in brief: as §1

GlcNAc(b1-3)Fuc = molecular target: GlcNAc(b1-3)Fuc
Method in brief: as §1

GlcNAc(b1-3)Gal = molecular target: GlcNAc(b1-3)Gal
Method in brief: as §1

[13] = molecular target: GlcNAc(b1-3)Gal(b1-3)GalNAc
Method in brief: as §1

GlcNAc(b1-3)Gal(b1-4)Glc = molecular target: GlcNAc(b1-3)Gal(b1-4)Glc
Method in brief: as §1

[14] = molecular target: GlcNAc(b1-3)Gal(b1-4)GlcNAc
Method in brief: as §1

[15] = molecular target: GlcNAc(b1-3)Gal(b1-4)GlcNAc(b1-2)Man(a1-3)[GlcNAc(b1-3)Gal(b1-4)GlcNAc(b1-2)Man(a1-6)]Man(b1-4)GlcNAc(b1-4)GlcNAc
Method in brief: as §1

[16] = molecular target: GlcNAc(b1-3)Gal(b1-4)GlcNAc(b1-2)Man(a1-3)[GlcNAc(b1-3)Gal(b1-4)GlcNAc(b1-2)Man(a1-6)]Man(b1-4)GlcNAc(b1-4)[Fuc(a1-6)]GlcNAc
Method in brief: as §1

[17] = molecular target: GlcNAc(b1-3)Gal(b1-4)GlcNAc(b1-2)[GlcNAc(b1-3)Gal(b1-4)GlcNAc(b1-6)]Man(a1-6)[GlcNAc(b1-3)Gal(b1-4)GlcNAc(b1-2)Man(a1-3)]Man(b1-4)GlcNAc(b1-4)GlcNAc
Method in brief: as §1

[18] = molecular target: GlcNAc(b1-3)Gal(b1-4)GlcNAc(b1-3)Gal(b1-4)GlcNAc
Method in brief: as §1

[19] = molecular target: GlcNAc(b1-3)Gal(b1-4)GlcNAc(b1-3)Gal(b1-4)GlcNAc(b1-2)Man(a1-3)[GlcNAc(b1-3)Gal(b1-4)GlcNAc(b1-3)Gal(b1-4)GlcNAc(b1-2)Man(a1-6)]Man(b1-4)GlcNAc(b1-4)GlcNAc
Method in brief: as §1

[20] = molecular target: GlcNAc(b1-3)Gal(b1-4)GlcNAc(b1-3)Gal(b1-4)GlcNAc(b1-2)Man(a1-3)[GlcNAc(b1-3)Gal(b1-4)GlcNAc(b1-3)Gal(b1-4)GlcNAc(b1-2)Man(a1-6)]Man(b1-4)GlcNAc(b1-4)[Fuc(a1-6)]GlcNAc
Method in brief: as §1

[21] = molecular target: GlcNAc(b1-3)Gal(b1-4)GlcNAc(b1-3)Gal(b1-4)GlcNAc(b1-2)[GlcNAc(b1-3)Gal(b1-4)GlcNAc(b1-3)Gal(b1-4)GlcNAc(b1-6)]Man(a1-6)[GlcNAc(b1-3)Gal(b1-4)GlcNAc(b1-3)Gal(b1-4)GlcNAc(b1-2)Man(a1-3)]Man(b1-4)GlcNAc(b1-4)[Fuc(a1-6)]GlcNAc
Method in brief: as §1

[22] = molecular target: GlcNAc(b1-3)Gal(b1-4)GlcNAc(b1-3)Gal(b1-4)GlcNAc(b1-3)Gal(b1-4)GlcNAc(b1-2)Man(a1-3)[GlcNAc(b1-3)Gal(b1-4)GlcNAc(b1-3)Gal(b1-4)GlcNAc(b1-3)Gal(b1-4)GlcNAc(b1-2)Man(a1-6)]Man(b1-4)GlcNAc(b1-4)GlcNAc
Method in brief: as §1

[23] = molecular target: GlcNAc(b1-3)Gal(b1-4)GlcNAc(b1-3)Gal(b1-4)GlcNAc(b1-3)Gal(b1-4)GlcNAc(b1-2)Man(a1-3)[GlcNAc(b1-3)Gal(b1-4)GlcNAc(b1-3)Gal(b1-4)GlcNAc(b1-3)Gal(b1-4)GlcNAc(b1-2)Man(a1-6)]Man(b1-4)GlcNAc(b1-4)[Fuc(a1-6)]GlcNAc
Method in brief: as §1

[24] = molecular target: GlcNAc(b1-3)Gal(b1-4)GlcNAc(b1-3)Gal(b1-4)GlcNAc(b1-3)Gal(b1-4)GlcNAc(b1-2)[GlcNAc(b1-3)Gal(b1-4)GlcNAc(b1-3)Gal(b1-4)GlcNAc(b1-3)Gal(b1-4)GlcNAc(b1-6)]Man(a1-6)[GlcNAc(b1-3)Gal(b1-4)GlcNAc(b1-3)Gal(b1-4)GlcNAc(b1-3)Gal(b1-4)GlcNAc(b1-2)Man(a1-3)]Man(b1-4)GlcNAc(b1-4)[Fuc(a1-6)]GlcNAc
Method in brief: as §1

[25] = molecular target: GlcNAc(b1-3)Gal(b1-4)GlcNAc(b1-3)Gal(b1-4)GlcNAc(b1-3)Gal(b1-4)GlcNAc(b1-3)Gal(b1-4)GlcNAc(b1-2)Man(a1-3)[GlcNAc(b1-3)Gal(b1-4)GlcNAc(b1-3)Gal(b1-4)GlcNAc(b1-3)Gal(b1-4)GlcNAc(b1-3)Gal(b1-4)GlcNAc(b1-2)Man(a1-6)]Man(b1-4)GlcNAc(b1-4)GlcNAc
Method in brief: as §1

[26] = molecular target: GlcNAc(b1-3)Gal(b1-4)GlcNAc(b1-3)Gal(b1-4)GlcNAc(b1-3)Gal(b1-4)GlcNAc(b1-3)Gal(b1-4)GlcNAc(b1-2)Man(a1-3)[GlcNAc(b1-3)Gal(b1-4)GlcNAc(b1-3)Gal(b1-4)GlcNAc(b1-3)Gal(b1-4)GlcNAc(b1-3)Gal(b1-4)GlcNAc(b1-2)Man(a1-6)]Man(b1-4)GlcNAc(b1-4)[Fuc(a1-6)]GlcNAc
Method in brief: as §1

[27] = molecular target: GlcNAc(b1-3)Gal(b1-4)GlcNAc(b1-3)Gal(b1-4)GlcNAc(b1-3)Gal(b1-4)GlcNAc(b1-3)Gal(b1-4)GlcNAc(b1-2)[GlcNAc(b1-3)Gal(b1-4)GlcNAc(b1-3)Gal(b1-4)GlcNAc(b1-3)Gal(b1-4)GlcNAc(b1-3)Gal(b1-4)GlcNAc(b1-6)]Man(a1-6)[GlcNAc(b1-3)Gal(b1-4)GlcNAc(b1-3)Gal(b1-4)GlcNAc(b1-3)Gal(b1-4)GlcNAc(b1-3)Gal(b1-4)GlcNAc(b1-2)Man(a1-3)]Man(b1-4)GlcNAc(b1-4)[Fuc(a1-6)]GlcNAc
Method in brief: as §1

[28] = molecular target: GlcNAc(b1-3)Gal(b1-4)GlcNAc(b1-3)Gal(b1-4)GlcNAc(b1-3)GalNAc
Method in brief: as §1

[29] = molecular target: GlcNAc(b1-3)Gal(b1-4)GlcNAc(b1-3)GalNAc
Method in brief: as §1

[30] = molecular target: GlcNAc(b1-3)Gal(b1-4)GlcNAc(b1-3)[GlcNAc(b1-3)Gal(b1-4)GlcNAc(b1-3)]GalNAc
Method in brief: as §1

[31] = molecular target: GlcNAc(b1-3)Gal(b1-4)GlcNAc(b1-6)[Gal(b1-3)]GalNAc
Method in brief: as §1

[32] = molecular target: GlcNAc(b1-3)Gal(b1-4)GlcNAc(b1-6)[GlcNAc(b1-3)Gal(b1-3)]GalNAc
Method in brief: as §1

[33] = molecular target: GlcNAc(b1-3)Gal(b1-4)GlcNAc(b1-6)[GlcNAc(b1-3)]Gal(b1-4)GlcNAc
Method in brief: as §1

GlcNAc(b1-3)GalNAc = molecular target: GlcNAc(b1-3)GalNAc
Method in brief: as §1

GlcNAc(b1-3)Man = molecular target: GlcNAc(b1-3)Man
Method in brief: as §1

[34] = molecular target: GlcNAc(b1-3)[GlcNAc(b1-4)][GlcNAc(b1-6)]GlcNAc
Method in brief: as §1

[35] = molecular target: GlcNAc(b1-3)[GlcNAc(b1-6)]Gal(b1-4)GlcNAc
Method in brief: as §1

[36] = molecular target: GlcNAc(b1-3)[GlcNAc(b1-6)]GalNAc
Method in brief: as §1

[37] = molecular target: GlcNAc(b1-4)Gal(b1-4)GlcNAc
Method in brief: as §1

GlcNAc(b1-4)GlcNAc = molecular target: GlcNAc(b1-4)GlcNAc
Method in brief: as §1

[38] = molecular target: GlcNAc(b1-4)GlcNAc(b1-4)GlcNAc
Method in brief: as §1

[39] = molecular target: GlcNAc(b1-4)GlcNAc(b1-4)GlcNAc(b1-4)GlcNAc(b1-4)GlcNAc
Method in brief: as §1

B1: SAOUHSC 02783 (Staphylococcus aureus), Q5HD69 (protein)
chain: MIHSKKLTLGICLVLLIILIVGYVIMTKTNGRNAQIKDTFNQTLKLYPTKNLDDFYDKEGFRDQEFKKGDKGTWIVNSEMVIEPKGKDMETRGMVLYINRNTRTTKGYYFISEMTDDSNGRPKDDEKRYPVKMEHNKIIPTKPLPNDKLKKEIENFKFFVQYGNFKDINDYKDGDISYNPNVPSYSAKYQLNNDDYNVQQLRKRYDIPTKQAPKLLLKGDGDLKGSSVGSRSLEFTFVENKEENIYFTDSVQYTPSEDTRYESN
- glycan array binding signal (z-score) [1]: -0.63
- glycan array binding signal (z-score) [2]: 0.726
- glycan array binding signal (z-score) [3]: 0.323
- glycan array binding signal (z-score) [4]: -0.821
- glycan array binding signal (z-score) [5]: -0.185
- glycan array binding signal (z-score) [6]: 1.11
- glycan array binding signal (z-score) [7]: -0.176
- glycan array binding signal (z-score) [8]: -0.289
- glycan array binding signal (z-score) [9]: -0.162
- glycan array binding signal (z-score) [10]: 0.512
- glycan array binding signal (z-score) [11]: -1.54
- glycan array binding signal (z-score) [12]: -0.218
- glycan array binding signal (z-score) (GlcNAc(b1-3)Fuc): -0.235
- glycan array binding signal (z-score) (GlcNAc(b1-3)Gal): -0.166
- glycan array binding signal (z-score) [13]: -0.447
- glycan array binding signal (z-score) (GlcNAc(b1-3)Gal(b1-4)Glc): -0.757
- glycan array binding signal (z-score) [14]: -0.202
- glycan array binding signal (z-score) [15]: -0.189
- glycan array binding signal (z-score) [16]: 0.582
- glycan array binding signal (z-score) [17]: 1.19
- glycan array binding signal (z-score) [18]: -0.079
- glycan array binding signal (z-score) [19]: 2.6
- glycan array binding signal (z-score) [20]: -0.227
- glycan array binding signal (z-score) [21]: 2.84
- glycan array binding signal (z-score) [22]: 0.55
- glycan array binding signal (z-score) [23]: 2.46
- glycan array binding signal (z-score) [24]: 1.87
- glycan array binding signal (z-score) [25]: -0.629
- glycan array binding signal (z-score) [26]: -1.23
- glycan array binding signal (z-score) [27]: 0.253
- glycan array binding signal (z-score) [28]: -0.082
- glycan array binding signal (z-score) [29]: -1.3
- glycan array binding signal (z-score) [30]: -0.404
- glycan array binding signal (z-score) [31]: -1.3
- glycan array binding signal (z-score) [32]: 0.027
- glycan array binding signal (z-score) [33]: -1.07
- glycan array binding signal (z-score) (GlcNAc(b1-3)GalNAc): -0.844
- glycan array binding signal (z-score) (GlcNAc(b1-3)Man): 0.318
- glycan array binding signal (z-score) [34]: -0.431
- glycan array binding signal (z-score) [35]: 0.098
- glycan array binding signal (z-score) [36]: -0.603
- glycan array binding signal (z-score) [37]: 0.117
- glycan array binding signal (z-score) (GlcNAc(b1-4)GlcNAc): 0.691
- glycan array binding signal (z-score) [38]: -0.387
- glycan array binding signal (z-score) [39]: -0.476
